Screening data, single-dose tests

Sequences of proteins named here, by UniProt entry; tags and fusion partners are left off. Residues count along the entry.
UniProt Q8IDJ8, 1-583: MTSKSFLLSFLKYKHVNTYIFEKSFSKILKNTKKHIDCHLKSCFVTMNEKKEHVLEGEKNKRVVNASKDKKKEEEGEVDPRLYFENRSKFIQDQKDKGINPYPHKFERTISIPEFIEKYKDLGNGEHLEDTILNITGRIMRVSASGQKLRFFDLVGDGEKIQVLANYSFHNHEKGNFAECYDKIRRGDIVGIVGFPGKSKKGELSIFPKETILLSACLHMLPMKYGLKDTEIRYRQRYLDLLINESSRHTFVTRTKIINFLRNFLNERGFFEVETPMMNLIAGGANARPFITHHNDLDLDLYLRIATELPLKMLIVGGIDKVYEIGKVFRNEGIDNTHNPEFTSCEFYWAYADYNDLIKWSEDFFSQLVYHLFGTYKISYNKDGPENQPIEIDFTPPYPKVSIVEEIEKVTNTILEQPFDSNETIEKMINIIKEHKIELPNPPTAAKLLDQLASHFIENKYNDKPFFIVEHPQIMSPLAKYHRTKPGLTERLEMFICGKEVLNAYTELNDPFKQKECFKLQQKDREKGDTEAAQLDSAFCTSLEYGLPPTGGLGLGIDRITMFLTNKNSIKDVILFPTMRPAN
UniProt P9WFT3, whole entry: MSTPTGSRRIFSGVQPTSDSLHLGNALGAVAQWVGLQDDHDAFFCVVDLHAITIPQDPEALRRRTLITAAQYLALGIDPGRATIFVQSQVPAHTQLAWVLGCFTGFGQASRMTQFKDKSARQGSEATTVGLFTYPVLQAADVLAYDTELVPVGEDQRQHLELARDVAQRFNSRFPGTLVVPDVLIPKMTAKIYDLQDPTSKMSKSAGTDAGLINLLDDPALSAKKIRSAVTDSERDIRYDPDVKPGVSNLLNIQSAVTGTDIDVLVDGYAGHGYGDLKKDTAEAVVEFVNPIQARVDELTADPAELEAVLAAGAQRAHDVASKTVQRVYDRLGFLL

Measurements from “University of Dundee, Small-Polar-MMV Screening Library” (2021), ChEMBL document CHEMBL3988442.

Results are given as percent effect.
How 0% and 100% were set is not recorded. Most values in the screen are low, and negative values occur.
Compounds were drawn at random from those tested, without regard to their results.
Two or more numbers in one place are separate tests of the same structure; such repeats can differ widely.
A dash means the value is not listed here; it may have been measured.

A: 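Enzyme assay of the cytosolic lysyl-tRNA synthetase in 384-well plates, read by luminescence. Target: Lysine-tRNA ligase, Plasmodium falciparum 3D7 (UniProt Q8IDJ8). Concentration: 30 µM. Direction is inferred from only a few compounds that gave an IC50; most scored high, so higher reads as stronger inhibition. About 69,000 compounds were tested under these conditions; 0.071% (about 49) showed 50% or more at least once.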
B: 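Enzyme assay of tryptophanyl-tRNA synthetase; the read-out is not stated. Target: Tryptophan-tRNA ligase, Mycobacterium tuberculosis (UniProt P9WFT3). Tested at 10 µM. Direction is not recorded; retested compounds ran higher, which suggests that high means inhibition. Of about 65,000 compounds tested this way, about 64 (0.098%) reached 50% or more in at least one test.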
C: 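Cell assay of Leishmania donovani living inside macrophages; the read-out is not stated. Tested at 30 µM. The record gives no direction; compounds that gave an IC50 in retests scored well above the rest, so higher reads as stronger inhibition. Of about 69,000 compounds tested this way, about 1,000 (1.5%) reached 50% or more in at least one test.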

SMILES | A | B | C
C[S+]([O-])c1ccc(NC(=O)CC2=CCCCC2)cc1 (stereo not shown) | 5.499 | -3.926 | -6.922
[H][C@]12CC[C@]([H])(CN(Cc3cscn3)C1)N(C(=O)Cc1cnccn1)C2 | - | - | 50.19
COc1cccc(CCNC(=O)CCS(=O)(=O)C2CCCC2)c1 | 5.52 | -0.3673 | 26.11
CCN(C)c1ncnc2c1CCN(C(=O)[C@H]1CCCO1)CC2 | 5.741 | -0.8835 | 7.322
CN(C)CCNCC1CCOC(C)(C)C1 (stereo not shown) | -0.2919 | 3.223 | -2.235
COCCC(=O)N1CCN(CC2CC2)c2ccccc21 | 6.806 | -1.685 | 27.42
c1cnc(N2CCCC3(CCN(Cc4ccncc4)C3)C2)nc1 (stereo not shown) | 8.697 | -0.4359 | 9.606
O=C(N1CCOCC1)N1C(CN2CCOCC2)[C@]2(O)CC[C@H]1CC2 (stereo partly shown) | -1.358 | - | -
COc1cccc(-c2n[nH]cc2C(=O)NC(C)CC(=O)O)c1 (stereo not shown) | -1.199 | 1.817 | 31.97
Cc1nn(C)c(C)c1OCC(=O)N1CCC(O)(C(F)(F)F)CC1 | 1.53 | -2.58 | 19.65
O=C(O)C(F)(F)F.O=C(c1ccco1)N1CCc2c(COCC3CC3)cncc2C1 | - | - | 4.021
CCN1C(=O)CCCC12CCCN(C(=O)c1ccoc1)C2 (stereo not shown) | 3.819 | -3.03 | -2.327 & 2.449
O=C(C1CC1)N1CC2(CCNCC2)c2cc(F)ccc21.O=C(O)C(F)(F)F | - | - | 3.359
COc1cc2nc(C)sc2cc1NC(=O)CN(C)C(C)C | 2.239 | 0.8081 | -43.18
Cc1nc2ccccc2nc1CN1CCCC(Cn2cncn2)C1 (stereo not shown) | 9.414 | -0.895 | 2.65
COc1ccc(Cl)cc1CNCCCn1ccnc1 | -1.336 | 17.06 | 3.119
COC(=O)c1cccc(C(=O)N(C)Cc2ccsc2)c1 | 0.9942 | -0.1468 | 3.384
Cc1cccc(CNC(=O)Nc2cc(C(F)(F)F)c[nH]c2=O)n1 | 5.044 | 3.692 | 27.73
COc1c(C2CCCN2C(=O)c2csc(C(C)C)n2)c(C)nn1C (stereo not shown) | -2.33 | -3.277 | 13.65
[H][C@@]12OCCN(C(=O)COc3ccc(C)cc3)[C@@]1([H])CC[C@H]2OC | - | - | 25.28
COc1cc(CNC(C)c2nnc3n2CCC3)cc(OC)c1 (stereo not shown) | 1.074 | -2.952 | -12.51
Cc1cc(C(NC(=O)CNS(C)(=O)=O)C(C)C)c(C)s1 (stereo not shown) | 2.482 | -0.7227 | 10.96
CC(=O)N1CCC(c2ncc(C(=O)Nc3ccccc3)c(C)n2)CC1 | 2.046 | -0.8486 | 10.4
O=C(NCC(O)COc1cccc(F)c1)C1(c2ccc(F)cc2)CC1 (stereo not shown) | 4.512 | 1.188 | 12.2
CC(=O)NCC(=O)N1CCc2[nH]c(-c3ccccc3)nc2C1 | 1.051 | 0.7508 | 40.74
CC(C)c1nc2c(n1C)CCN(CCS(=O)(=O)c1ccccc1)C2 | 0.4459 | -5.676 | 28.19
O=C(O)c1cn(CC2CCCN(c3nccc4occc34)C2)nn1 (stereo not shown) | 5.031 | -0.09633 | 20.64
[H][C@@]12OCCN(S(=O)(=O)C3CC3)[C@@]1([H])CC[C@H]2OCC | - | - | 10.3
O=C(O)C(F)(F)F.O=C(O)C(F)(F)F.O=C(O)C(F)(F)F.[H][C@@]12CN(Cc3ccc(OC)cc3)C[C@]1([H])OCCN2CCN1CCCC1 | - | - | 28.69
O=C(c1ncccn1)N1C[C@@H]2CN(Cc3cccnc3)CCO[C@@H]2C1 | 3.487 | -3.139 | -
[H][C@@]12CC[C@@](O)(c3ccc(C)cn3)[C@]1([H])CN(Cc1cccnc1)C2 | - | - | -11.1 & 5.401
O=C(c1cccs1)N1CCc2nnc(COc3cncnc3)n2CC1 | 0.9232 | 11.07 | -3.625
Cc1nc(C2(O)CCCNCC2)sc1CCOc1ccc(F)cc1 (stereo not shown) | -2.624 | - | -
CN(CCCc1cnn(C)c1)C(=O)C1COc2ccccc2C1 (stereo not shown) | -0.7071 | -5.203 | 9.665
Cc1nnc2n1CCN(C(=O)c1ccnc(N(C)C)c1)C2 | -0.9701 | 22.06 | -29.91
CCC1=N[C@@]2(CC[C@@H]3CN(S(=O)(=O)N(C)C)C[C@@H]32)C(=O)N1CC(C)C | 4.018 | -6.284 | -
COc1ccccc1CN(CC1CCCO1)C(=O)c1ccc(F)cn1 (stereo not shown) | 0.5568 | 4.717 | -0.06707
c1ccc(Oc2cc(CNCC3CNc4ccnn4C3)ccn2)cc1 (stereo not shown) | 3.387 | -3.216 | 26.44
O=C(CCc1ccco1)NCC1CCCN1c1cccnn1 (stereo not shown) | -0.2501 | 1.687 | 41
COc1ccc(CCC2CCCN(CC(=O)O)C2)cc1 (stereo not shown) | 5.1 | -6.265 | 15.84
CCC(=O)N1CCC2(CC1)CC(N1CCOCC1)c1cc(C)ccc12 (stereo not shown) | -0.9873 | -4.182 | -
Cc1cccc(C(=O)N2C[C@@H]3CC[C@H](Oc4cccc(F)c4)[C@@H]3C2)n1 | 0.3271 | - | -
CCO[C@H]1CC[C@H]2[C@@H]1OCCN2C(=O)COc1ccccc1 | -1.816 | - | -
CSCCC(=O)N1CC[C@@H](N2CCN(c3ccccc3F)CC2)[C@H](O)C1 | -7.527 | -5.166 | -3.226
N[C@@H]1CCN(Cc2ccccc2CS(=O)(=O)c2ccccc2)C[C@H]1O | 3.675 | 1.632 | 11.27

Repeated from the top, 6 entries:

* C[S+]([O-])c1ccc(NC(=O)CC2=CCCCC2)cc1 (stereo not shown) : A: 5.499%; B: -3.926%; C: -6.922%
* [H][C@]12CC[C@]([H])(CN(Cc3cscn3)C1)N(C(=O)Cc1cnccn1)C2 : C: 50.19%
* COc1cccc(CCNC(=O)CCS(=O)(=O)C2CCCC2)c1 : A: 5.52%; B: -0.3673%; C: 26.11%
* CCN(C)c1ncnc2c1CCN(C(=O)[C@H]1CCCO1)CC2 : A: 5.741%; B: -0.8835%; C: 7.322%
* CN(C)CCNCC1CCOC(C)(C)C1 (stereo not shown) : A: -0.2919%; B: 3.223%; C: -2.235%
* COCCC(=O)N1CCN(CC2CC2)c2ccccc21 : A: 6.806%; B: -1.685%; C: 27.42%